Experiment [1] deals with Hexose-6-phosphate dehydrogenase (human (endogenous in MCF7 and MDA-MB-231)). Briefly: co-IP; MDA-MB-231 cells; reversible intracellular crosslinking (2 mM DSP, 0.5 mM DTME), lysis in 1% Triton X-100 buffer, IP with rabbit polyclonal anti-H6PD antibody and protein A magnetic beads, washes with 0.5 M NaCl, immunoblot; rabbit IgG as control. In general terms: Immunoblotting shows a protein as a band on a membrane.

The target is the same in experiment [2]. As to the kind of experiment: co-IP; MCF7 cells, endogenous proteins; reversible intracellular crosslinking (2 mM DSP, 0.5 mM DTME), lysis in 1% Triton X-100 buffer, IP with rabbit polyclonal anti-H6PD antibody and protein A magnetic beads, washes with 0.5 M NaCl, immunoblot; rabbit IgG as control.

Results are given in words; binding and its absence hold for the method and conditions named. Binding seen in cells or lysates may run through a third protein. A result given as binding can be weak or reduced; the word gives no strength. Sequences can lack the tags named with a protein.

B1: Mannosyl-oligosaccharide glucosidase (enzyme, UniProt Q13724 1-837)
chain: MARGERRRRAVPAEGVRTAERAARGGPGRRDGRGGGPRSTAGGVALAVVVLSLALGMSGRWVLAWYRARRAVTLHSAPPVLPADSSSPAVAPDLFWGTYRPHVYFGMKTRSPKPLLTGLMWAQQGTTPGTPKLRHTCEQGDGVGPYGWEFHDGLSFGRQHIQDGALRLTTEFVKRPGGQHGGDWSWRVTVEPQDSGTSALPLVSLFFYVVTDGKEVLLPEVGAKGQLKFISGHTSELGDFRFTLLPPTSPGDTAPKYGSYNVFWTSNPGLPLLTEMVKSRLNSWFQHRPPGAPPERYLGLPGSLKWEDRGPSGQGQGQFLIQQVTLKIPISIEFVFESGSAQAGGNQALPRLAGSLLTQALESHAEGFRERFEKTFQLKEKGLSSGEQVLGQAALSGLLGGIGYFYGQGLVLPDIGVEGSEQKVDPALFPPVPLFTAVPSRSFFPRGFLWDEGFHQLVVQRWDPSLTREALGHWLGLLNADGWIGREQILGDEARARVPPEFLVQRAVHANPPTLLLPVAHMLEVGDPDDLAFLRKALPRLHAWFSWLHQSQAGPLPLSYRWRGRDPALPTLLNPKTLPSGLDDYPRASHPSVTERHLDLRCWVALGARVLTRLAEHLGEAEVAAELGPLAASLEAAESLDELHWAPELGVFADFGNHTKAVQLKPRPPQGLVRVVGRPQPQLQYVDALGYVSLFPLLLRLLDPTSSRLGPLLDILADSRHLWSPFGLRSLAASSSFYGQRNSEHDPPYWRGAVWLNVNYLALGALHHYGHLEGPHQARAAKLHGELRANVVGNVWRQYQATGFLWEQYSDRDGRGMGCRPFHGWTSLVLLAMAEDY
For the molecule B1, the binding result in experiment [1] and in experiment [2] was “binds” in each case.

(Values after paper PMC12032772.)
